{"source": "patent US20220389359A1", "about": "“USE OF PERFLUORO-N-OCTANE FOR PIEZO-MEDIATED INTRACYTOPLASMIC SPERM INJECTION” (priority 2019, published 2022)", "assay": "Suitability of fluorinated compounds as operating liquid for Piezo-ICSI", "conditions": "compared to commercially available hydrofluoroether control"}
{"compound": "FC1(F)C(F)(F)C(F)(F)C2(F)C(F)(F)C(F)(F)C(F)(F)C(F)(F)C2(F)C1(F)F", "note": "(stereo not shown) [Perfluorodecalin, perfluorodecalin, reference compound]", "values": [{"measurement": "Evaluation of suitability for use as operating liquid for Piezo-ICSI", "result": "Poor-Due to its high viscosity, it took"}]}
{"compound": "FC1(F)C(F)(F)C(F)(F)C2(F)C(F)(C1(F)F)C(F)(F)C(F)(F)C1(F)C(F)(F)C(F)(F)C(F)(F)C(F)(F)C12F", "note": "(stereo not shown) [Perfluoroperhydrophenanthrene, perfluoroperhydrophenanthrene, reference compound]", "values": [{"measurement": "Evaluation of suitability for use as operating liquid for Piezo-ICSI", "result": "Unusable-The viscosity of"}]}
{"compound": "FC(F)(F)C(F)(F)C(F)(F)C(F)(F)C(F)(F)C(F)(F)C(F)(F)C(F)(F)F", "note": "[perfluoro-n-octane, 1,1,1,2,2,3,3,4,4,5,5,6,6,7,7,8,8,8-octadecafluorooctane]", "values": [{"measurement": "Evaluation of suitability for use as operating liquid for Piezo-ICSI", "result": "as suitable for use as operating liquid for piezo-ICSI as the standard hydrofluoroether operating liquid"}, {"measurement": "Evaluation of suitability for use as operating liquid for Piezo-ICSI", "setting": "listed as Perfluoro-n-octane", "result": "Good-Loading of perfluoro-n-octane"}]}
